Measured values from patent US8258094 (dated 2012).

Test: general procedure: Fmoc solid-phase peptide synthesis; Rink Amide-MBHA resin (Novabiochem), substitution 0.64 mmol/g; HBTU/HOBT, DIEA in NMP; TFFH/HOAt/DMAP/DIEA for Aib1; PyAOP/HOAt/DMAP/DIEA for s
Details: whole synthesis; for final HPLC purity: scale of the general procedure 0.1 mmol

Row | Substance | final HPLC purity | isolated mass (scale 0.1 mmol) | isolated yield (scale 0.1 mmol)
1 | (Aib^1,2,10, Glu(NH-hexyl)^3,17)hGhrelin(1-28)-NH2 | 96.5% |  | 
2 | (Ac-Aib^1,Aib^2,10,Glu(NH-hexyl)^3,17)hGhrelin(1-28)-NH2 | 97.5% | 27.1 mg | 6.3%
3 | (Ac-Gly^1,Aib^2,10,Glu(NH-hexyl)^3,17)hGhrelin(1-28)-NH2 | 99.0% |  | 
4 | (Aib^2,8,Glu(NH-hexyl)^3,17)hGhrelin(1-28)-NH2 | 99.9% |  | 
5 | (Ac-Gly^1,Aib^2,10,Glu(NH-hexyl)^3,Lys(biotinyl)^17)hGhrelin(1-28)-NH2 | 98.4% |  | 
6 | (Ac-Gly^1,Aib^2,Glu(NH-hexyl)^3,17)hGhrelin(1-28)-NH2 | 99.0% |  | 
7 | (Ac-Gly^1,Aib^2,8,Glu(NH-hexyl)^3,17)hGhrelin(1-28)-NH2 | 98.0% |  | 
8 | (Aib^2,Lys(myristyl)^17)hGhrelin(1-28)-NH2 | 99.2% |  | 
9 | (Aib^2,8,Ser^3,Glu(NH-hexyl)^17)hGhrelin(1-28)-NH2 | 99.0% |  | 
10 | (Gly(myristyl)^1,Aib^2,Lys(myristyl)^17)hGhrelin(1-28)-NH2 | 98.6% |  | 
11 | (Aib^2,10,Glu(NH-hexyl)^3,17)hGhrelin(1-28)-NH2 | 100% |  | 
